# Test results published in publication PMC12040169 (PLOS Biology, 2025).
# The list shows a part of the results.
# Test system: T1, CTL2-GFP (C. trachomatis L2/434/Bu, GFP-expressing)
# T1 construct: L2/434/Bu, GFP-expressing
# Design: species or system HeLa; Intracellular C. trachomatis growth in HeLa cells, bulk GFP fluorescence relative to DMSO
# Settings: bulk GFP, single well; 28.5 h, 10 µM; inhibitor
row,Compound,% of control remaining [%]
1,CC(C)n1c(=O)n(CC(=O)N2CCCCC2)c2cccnc21 [CBK283526],117.766
2,CC(C)S(=O)(=O)n1ccn(-c2ccc(Oc3ccccc3)cc2)c1=O [CBK106644],105.35
3,O=C(O)CN(CC(=O)O)S(=O)(=O)c1ccc(Cl)cc1 [CBK261526],103.114
4,COc1ccc2c(c1)c(C)c(C(=O)NC(C)Cc1ccccn1)n2C (centres unmarked) [CBK281425],120.042
5,CCOc1ccccc1NC(=O)c1ccc(CS(=O)(=O)c2ccc(C)cc2)cc1 [CBK268572],145.37
6,COCc1[nH]nc(O)c1Cc1c(Cl)cccc1Cl [CBK105305],104.792
7,CCN(CC)S(=O)(=O)c1cc(S(=O)(=O)N(CC)CC)c2cccc3c2c1NC(=O)O3 [CBK005022],105.96
8,O=C(O)CCCC(=O)OCc1ccco1 [CBK260933],115.536
9,CCC(CO)Nc1cncc(-c2cccc(N)c2)n1 (centres unmarked) [CBK065278],169.612
10,Cc1ccc(CCC(=O)Nc2ccc(S(N)(=O)=O)cc2)o1 [CBK269031],152.24
11,CNC(=O)C1(Cc2ccc(-c3cccc(C)c3)cc2)CCN(C(=O)CC(C)(C)C)CC1 [CBK285923],119.438
12,CNC(=O)CN(C)C(=O)c1coc(COc2ccc3sc(C)nc3c2)n1 [CBK307571],130.328
13,CCCC(NC(=O)Nc1ccnn1CC(C)C)c1nccn1C (centres unmarked) [CBK307444],182.625
14,COc1ccc(S(=O)(=O)N2CCOCC2)cc1C(=O)N1CCCC(C)C1 (centres unmarked) [CBK305011],104.004
15,CC(C)(C)c1ccc(-c2nc3ncccc3cc2N)cc1 [CBK067611],168.862
16,CC1Cc2ccccc2N1C(=O)CSc1nnc(N)s1 (centres unmarked) [CBK269530],142.776
17,O=C(c1cc(F)cc(F)c1)N1CC[C@@H](c2ccccc2)[C@H](O)C1 [CBK283715],125.838
18,O=C(COc1ccc2ccccc2c1Br)NCc1ccccn1 [CBK267361],146.092
19,CCNC(=O)N1CC2(CCN(Cc3ccc(OC(F)(F)F)cc3)CC2)c2ccccc21 [CBK126688],98.6084
20,Cc1ccc(O)c(NC(=O)c2nc3nc(C)cc(C(F)F)n3n2)c1 [CBK266186],155.181
21,O=C(COc1ccc2ccccc2c1)Nc1cc([N+](=O)[O-])ccc1F [CBK263780],127.89
22,CCOC(=O)c1ccc(-c2ccc(/C=N/N=C3\NC(=O)C(CC(=O)O)S3)o2)cc1 (centres unmarked) [CBK264474],124.031
23,Cc1ccc(NS(=O)(=O)c2ccc(OC(F)(F)F)cc2)c(CO)c1 [CBK043267],115.291
24,O=C(OCc1ccccc1)N1CCN(c2ccccc2)CC1 [CBK200241],150.025
25,Nn1c(SCCCCSc2nnc(C(F)(F)F)n2N)nnc1C(F)(F)F [CBK267946],126.103

# By substructure: the compounds so far with two or more sulfur atoms (three)
row,Compound,% of control remaining [%]
7,CCN(CC)S(=O)(=O)c1cc(S(=O)(=O)N(CC)CC)c2cccc3c2c1NC(=O)O3 [CBK005022],105.96
16,CC1Cc2ccccc2N1C(=O)CSc1nnc(N)s1 (centres unmarked) [CBK269530],142.776
25,Nn1c(SCCCCSc2nnc(C(F)(F)F)n2N)nnc1C(F)(F)F [CBK267946],126.103

# (listing goes on)

row,Compound,% of control remaining [%]
1,CCCc1cc(CNC(=O)c2ccnn2C(C)C)on1 [CBK282047],170.441
2,O=c1nc(CNc2ccc(Br)cc2)[nH][nH]1 [CBK288403],109.016
3,COc1ccc(CC(=O)N2CC=C(c3ccc(C)o3)CC2)cc1 [CBK283572],98.7474
4,CN1CCN(C(=O)CN(c2cccc([N+](=O)[O-])c2)S(=O)(=O)c2ccccc2)CC1 [CBK264121],125.036
5,CCCN1C(=O)COc2ccc(-c3noc(-c4ccccn4)n3)cc21 [CBK288596],133.919
6,CCn1cc(C(=O)O)c(=O)c2cc(F)c(N3CCN(C(=S)NC(=O)c4c(-c5ccccc5)noc4C)CC3)cc21 [CBK267490],137.155
7,N#Cc1c(F)cccc1N1CCCC(C(=O)Nc2nncs2)C1 (centres unmarked) [CBK306335],106.101
8,COc1ccccc1CCCNC(=O)c1csc(C(C)=O)c1 [CBK282513],139.714
9,O=C(NC1CCCOC1)C1CCN(Cc2ccccc2Cl)CC1 (centres unmarked) [CBK282520],180.583
10,Cc1ccc(N2CCCC2=O)cc1S(=O)(=O)NC1C2CCCCC21 (centres unmarked) [CBK282840],130.409
11,Cc1noc2nc(C3CCCN(C(=O)C4CC4)C3)cc(C(F)F)c12 (centres unmarked) [CBK284608],172.126
12,CCOC(=O)c1cnc(SCc2cccc([N+](=O)[O-])c2)nc1N [CBK266449],143.606
13,COCc1nc(CN2CCNC(=O)C2c2ccccc2C(F)(F)F)no1 (centres unmarked) [CBK304157],135.472
14,COc1ccc(S(=O)(=O)N(C)CC(=O)Nc2ccc(S(N)(=O)=O)cc2)cc1 [CBK265922],104.597
15,CCC(C)(C)c1ccc(S(=O)(=O)N2CCN(CCCC#N)CC2)cc1 [CBK063134],128.34
16,c1ccc2c(CN3CCCNCC3)cccc2c1 [CBK028773],125.695
17,Cc1nc(-c2ccccc2)sc1C(=O)C1=C(O)C(=O)N(CCN2CCOCC2)C1c1cccs1 (centres unmarked) [CBK266520],160.617
18,c1ccc(OCCOc2nccnc2-c2ccsc2)cc1 [CBK106773],108.122
19,COc1cc2c(cc1OC)C1c3ccccc3N(Cc3ccccc3)C(=O)N1CC2 (centres unmarked) [CBK286192],116.667
20,O=C(Cn1cc(C(=O)NC2(c3ccccc3)CCCC2)ccc1=O)NCc1ccc(F)cc1 [CBK286027],118.252
21,C[C@H](Nc1cncc(-c2ccc3c(c2)OCO3)n1)c1ccccc1 [CBK065962],174.126
22,CC1=C[C@@H](CNC(=O)c2cccnc2)[C@H](C(C)C)C[C@H]1CC(=O)N1CCCC1 [CBK289055],124.235
23,COCCNC(=O)c1ccc(-c2ccccc2OC)nc1NCC1CC1 [CBK106246],104.534
24,FC(F)(F)c1ccc(CN2CCN(c3nccnc3OCCN3CCOCC3)CC2)cc1 [CBK082890T],123.005
25,Cc1nn(C)c(Cl)c1S(=O)(=O)Nc1ccc2nsnc2c1 [CBK062222],116.85
